Where no end group is shown, it is not given here. The star is where a group is joined. Lauroyl = CCCCCCCCCCCC(=O)*
Assay: general procedure: Fmoc solid-phase peptide synthesis; HCTU
Settings: whole synthesis, 220 nm, trifluoroacetate salt

Substance | final HPLC purity [%]
Lauroyl-QHTQITKV | 98.14
Lauroyl-QHSQITKV | 99.45

Source: patent US20220153782A1 (MEMORYPLUS LTD., priority 2019, published 2022)
